Data: patent publication US20260232745A1, “INHIBITION OF METHANE PRODUCTION IN RUMINANTS” (Loam Bio Pty Ltd, priority 2023, published 2026)

Assay: Chemical reaction with bromine water (HOBr), bromoform by GCMS
Details: 10 mM substrate, 24 hours at room temperature

| Compound | conversion to bromoform |
| --- | --- |
| O=C(O)CC(O)(CC(=O)O)C(=O)O [citric acid] | Good conversion |
| CC1(C)CC(=O)CC(=O)C1 [dimedone] | Good conversion |
| COC(=O)C(C)=O [methyl pyruvate] | Good conversion |
